## Results of single-concentration screens

From ChEMBL document CHEMBL3988442, “University of Dundee, Small-Polar-MMV Screening Library” (2021).

Each number is a percent effect as filed.
The record does not define 0% and 100%; most values in the screen are far below 50% and negative numbers occur (in some assays of this library far below -100).
This is an unselected part of the compounds tested.
A dash means the value is not listed here; it may have been measured.

T. brucei: 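Whole-parasite assay of Trypanosoma brucei over 72 hours; the read-out is not stated. Tested at 30 µM. The record gives no direction; compounds that gave an IC50 in retests scored well above the rest, so higher reads as stronger inhibition. Values scatter widely below zero; nearly all retest evidence comes from the higher of the two concentrations used. About 64,000 compounds were tested under these conditions; 1.5% (about 940) showed 50% or more at least once.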
Toxoplasma: 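Assay of Toxoplasma gondii numbers, read through their beta-galactosidase reporter with a colour substrate. Concentration: 10 µM. Higher reads as fewer parasites (inferred from which compounds were picked for retests). About 67,000 compounds were tested under these conditions; 0.38% (about 260) showed 50% or more at least once.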

structure,T. brucei,Toxoplasma
O=C(O)C(F)(F)F.O=C(O)C(F)(F)F.O=C(O)C(F)(F)F.[H][C@@]12CN(Cc3ccc(OC)cc3)C[C@]1([H])OCCN2CCN1CCCC1,-20.01%,-5.706%
CCOc1ccc(Cl)c(C(=O)N2CCN(CC(O)CC)CC2)n1 (stereo not shown),1.715%,-1.364%
CN(C)C(=O)NCc1nnc2n1CCN(Cc1ccsc1)C2,-31.61%,-11.24%
COc1cc(CNC(C)c2nnc3n2CCC3)cc(OC)c1 (stereo not shown),-,-5.047%
Cc1nc(-c2nc(C(=O)N3CCOCC3)c3ccccn23)cn1C(C)C,-4.871%,9.352%
CC(C)c1nn(C)c(N(C)C)c1CNCC(O)c1cccc(F)c1 (stereo not shown),-,-1.421%
Cc1cc(S(=O)(=O)NCC2CNCCOC2)c(C)cc1Cl (stereo not shown),-31.59%,1.669%
[H][C@@]12CCC(=O)N(CCCOC)[C@]1([H])CCN(Cc1cc3ccccc3o1)C2,-9.08%,-1.401%
CC(O)c1cn(CC2CCN(C(=O)c3cccc(N(C)C)c3)CC2)nn1 (stereo not shown),-,0.3701%
CN(C(=O)c1ccc(OCC(F)F)nc1)c1ccc2c(c1)CCO2,-23.41%,-1.921%
COc1ccc(C)cc1-n1cnnc1C1CC(=O)N(C)C1 (stereo not shown),19.65%,-6.62%
CN1CCC(NC(=O)CCCc2cc(Cl)sc2Cl)C1=O (stereo not shown),-5.981%,4.779%
CCN(Cc1ccc2c(c1)OCO2)C(=O)Cn1cccnc1=O,3.174%,-5.572%
COc1c(C2CCCN2Cc2cccc(C(N)=O)c2)c(C)nn1C (stereo not shown),-,-9.353%
CC(C)[C@@H]1CN(Cc2cnc(C3CCCCC3)nc2)C[C@H]1N(C)C,-29.26%,-11.48%
O=C(CCc1ccco1)NCC1CCCN1c1cccnn1 (stereo not shown),-23.66%,0.07299%
CCc1ccc(CN2CCN(c3ncc(Cl)cn3)CC2)nc1,-16.65%,3.136%
CC(C)CN(Cc1cnn(C)c1)C(=O)C1COc2ccccc2C1 (stereo not shown),-46.17%,3.977%
Cc1oc(C(=O)O)cc1S(=O)(=O)Nc1ccc(Cl)c(Cl)c1,7.382%,-13.7%
O=C(Nc1ccc(F)cc1F)N(CCC(F)(F)F)C[C@H](O)CO,4.878%,-5.162%
O=C(c1sccc1-n1cnnn1)N1CCCCC1,5.2%,3.121%
Cc1ncnc(N2CCN(C(=O)C3CC4(CCNCC4)CN3)CC2)c1C (stereo not shown),-59.86%,13.38%
O=C(O)C(F)(F)F.O=C(O)C(F)(F)F.O=C1CC2(CCN(Cc3ccccn3)C2)CN1c1cccnc1 (stereo not shown),-20.14%,-1.127%
Cc1cc2n(n1)[C@@H](C(F)(F)F)C[C@@H](C1CCCN(C(=O)C(C)C)C1)N2 (stereo partly shown),-21.97%,-11.18%
COc1ccc(C2CC(=O)Nc3c2cnn3C)cc1 (stereo not shown),13.43%,-1.9%
Cc1nn(C)c2nc(N3CCNC(=O)C3C(C)C)sc12 (stereo not shown),-20.97%,0.8521%
CC(C)OCCC(=O)NCCc1csc(N2CCCC2)n1,-11.55%,-4.767%
Cc1cccc2c1ccn2CCC(=O)O,-64.85%,5.175%
N#Cc1nc(COc2ccc3c(c2)OCO3)oc1N1CCCC1,-21.21%,5.888%
Cc1ccc(C)c(S(=O)(=O)N2CCN(C)C3(CCC(=O)N(C)CC3)C2)c1 (stereo not shown),-39.66%,-11.56%
COCC1CN(C(=O)Cc2ccc(F)cc2)Cc2ccnn2C1 (stereo not shown),-2.137%,6.652%
Cc1nc[nH]c1-c1nccn1CCCN(C)C,-28.03%,-7.695%
CSCCC(=O)N1CCCC1c1ccsc1 (stereo not shown),-53.32%,6.397%
CCn1cc(C(=O)Nc2cc(C)ccc2C)cn1,-18.43%,12.67%
O=C(NCC1CC1)Nc1cnc2cc(Cl)ccc2c1O,-32.93%,27.35%
Cc1ccc(-c2csc(N)c2C#N)cc1,29.38%,3.945%
[H][C@@]12COC[C@]1(COCC1CC1)CN(C(=O)c1ccc(F)cc1C)C2,-78.08%,-3.989%
COc1ccc2c(OCC(=O)NC(C)(C)C)ccnc2c1,-8.162%,-27.54%
CC(=O)Nc1nc2c(s1)C1(CCCC1)Nc1ccccc1S2,-6.174%,-10.22%
Cc1ccccc1-c1noc(C2CC(C(C)C)=NO2)n1 (stereo not shown),0.8902%,1.471%
O=C(O)C(F)(F)F.O=C(O)C(F)(F)F.O=C(O)C(F)(F)F.O=C(O)C(F)(F)F.[H][C@]12CC(Cn3cccn3)N(C)[C@@]1([H])CCN(Cc1ccccn1)C2 (stereo partly shown),-4.445%,-5.586%
Cc1ccccc1CC(=O)N(C)C1CCCC1,1.39%,-2.311%
Cc1nc[nH]c1CN(Cc1ccccc1F)C1CC(C)(C)NC(C)(C)C1.O=C(O)CC(O)(CC(=O)O)C(=O)O,34.01%,9.16%
CCc1nnc2n1CCN(C(=O)CCc1ccc3c(c1)OCO3)C2,-4.782%,0.2695%
O=C(O)C(F)(F)F.[H][C@]12CCC[C@@H](CN(C)C)[C@@]1([H])CN(c1ncccn1)C2,-12.16%,-46.94%
CC(CNC(=O)c1cnccn1)Oc1cccc(Br)c1 (stereo not shown),-49.04%,15.1%
O=S(=O)(NCCn1ccc(-c2ccccn2)n1)C1CCCCC1,3.144%,-13.4%
CCCOc1cc(C)ccc1NC(=O)NCCC(=O)N(C)C,-96.24%,1.533%
O=C(CC1CC1)N1CCC2(CCCN(c3ncccn3)C2)CC1,-28.41%,-5.818%
CCN(C)CC1CCN(c2ncc(Br)cn2)C1 (stereo not shown),-4.366%,2.008%
CN1CCCN(C(=O)c2ccc3c(c2)nc(N2CCOCC2)n3C)CC1,-22.11%,-3.14%
CC(C)(O)CCc1cccc(C(=O)N[C@H](C(N)=O)c2ccccc2)c1,-,-27.92%
COc1cccc(-c2ncc(CN3CC[C@H](CO)[C@@H](O)C3)s2)c1,-55.66%,-45.84%
CN(c1ccc(F)c(F)c1)S(=O)(=O)c1cc(C(=O)O)cs1,-29.72%,0.1723%
CCc1nc(CN2CCCN(C(=O)C(C)n3cncn3)CC2)cs1 (stereo not shown),5.427%,-0.9529%
CCN(CC)C(=O)c1nnc2ccc(N3CCOCC3)cc2n1,-3.625%,12.43%
CN(Cc1ccsc1)C(=O)Nc1ccc(N2CCCC2)nc1,-,-4.127%
CC(C)N1CCCC(c2cc(C(F)(F)F)nc3nccn23)C1 (stereo not shown),11.45%,-24.2%
COCC1CN(c2ncccn2)Cc2cnn(CC3CC3)c21 (stereo not shown),-59.93%,-1.459%

Once more, the final 5:

structure	T. brucei	Toxoplasma
CCc1nc(CN2CCCN(C(=O)C(C)n3cncn3)CC2)cs1 (stereo not shown)	5.427%	-0.9529%
CCN(CC)C(=O)c1nnc2ccc(N3CCOCC3)cc2n1	-3.625%	12.43%
CN(Cc1ccsc1)C(=O)Nc1ccc(N2CCCC2)nc1	-	-4.127%
CC(C)N1CCCC(c2cc(C(F)(F)F)nc3nccn23)C1 (stereo not shown)	11.45%	-24.2%
COCC1CN(c2ncccn2)Cc2cnn(CC3CC3)c21 (stereo not shown)	-59.93%	-1.459%